# About 100 (0.03%) of roughly 330,000 compounds were called active. The shares of active, inactive and inconclusive entries below differ from those in the screen. Calls follow the shape of the dose curve; as a rule, active = well fitted inhibition curve with a large enough effect; inconclusive = small, poorly fitted or top-dose-only effect; inactive = flat fitted curve, though single readings scatter. Where the call is inconclusive, the potency comes from a doubtful curve fit.
# System: Chaperonin Mm-Cpn (Methanococcus maripaludis)
# Assay: Inhibitors of TCP-1 ring complex (TRiC) of Methanococcus maripaludis (MmCpn): qHTS; also: nearly all actives have a fitted effect of over 80% in size;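 as to potency: enzyme at 25 nM with ATP substrate at 10 µM during the reaction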
# Settings: purified Mm-Cpn ATPase, ADP Transcreener TR-FRET; activity, negative = inhibition: at the top concentration
# How it was run: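 Reaction buffer contained 30 mM Tris pH 7.4, 100 mM KCl, 5 mM MgCl2 and 1 mM DTT. Mm-CPN (25 nM final) hydrolysed 10 uM ATP over 30 min at 37°C; ADP was read by HTRF.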
# % is scaled to controls: 0 for no effect and ±100 for the full control effect; potency is read from the fitted curve at half-maximal effect.
Compound,Potency,"activity, negative = inhibition"
COC(=O)C1=CO[C@@H](O[C@@H]2O[C@H](CO)[C@@H](O)[C@H](O)[C@H]2O)C2C1C[C@H](O)[C@@H]2C (some centres not stated),"inconclusive: 89.1 µM [inhibitor, single point]",
CCOC(=O)CSc1nc2ccc(C)cc2n2cnnc12,"inconclusive: 22.4 µM [inhibitor, single point]",
Cc1ccccc1NCC(=O)N=Nc1c(O)[nH]c2ccc([N+](=O)[O-])cc12,,inactive: 3.14%
Clc1ccc(-c2csc(N/N=C/c3ccco3)n2)cc1,,inactive: 2.41%
N#Cc1ccc(-c2c(-c3ccccc3)ncc3cc(F)ccc23)cc1,"inconclusive: 11.2 µM [inhibitor, single point]",
CN(C)/C=C/C(=O)c1ccc(OCCN(C)c2ccccn2)cc1,"inconclusive: 112 µM [inhibitor, partial curve, poor fit]",
COc1cccc(Nc2nnc(SCc3cc([N+](=O)[O-])cc4c3OCOC4)s2)c1,,inactive: 3.34%
Cc1ccc(OCc2ccc(C(=O)Nc3cc(C)on3)o2)c([N+](=O)[O-])c1,"inconclusive: 44.7 µM [inhibitor, single point]",
CCOc1ccc(N(CC(=O)NCCSCc2ccccc2)S(=O)(=O)c2ccccc2)cc1,"inconclusive: 100 µM [inhibitor, single point]",
Cc1ccc(-c2csc3nc(C)n(-n4cccc4)c(=O)c23)o1,"inconclusive: 100 µM [inhibitor, partial curve, poor fit]",
COc1cc(/C=C(\C#N)c2nc3ccccc3o2)ccc1O,"inconclusive: 100 µM [inhibitor, single point]",
COc1ccc(NS(=O)(=O)c2ccc3oc(SC)nc3c2)cc1,,inactive: 0.467%
O=C1CCCCC1C(=O)c1ccccc1 (configuration not stated),"inconclusive: 11.2 µM [inhibitor, single point]",
CC(=O)c1ccc(/C=C/c2nc3ccccc3n2C)o1,"inconclusive: 141 µM [inhibitor, partial curve, poor fit]",
Cc1ccc(SCC(=O)N2CCCC2)cc1,"inconclusive: 251 µM [inhibitor, partial curve, poor fit]",
CC1CCN(S(=O)(=O)c2ccc3c(ccn3CCC(=O)NC(C)C)c2)CC1,"inconclusive: 5.62 µM [inhibitor, single point]",
CCC(C)(C)n1nnnc1C(c1cccnc1)N1CCCC(C)C1 (configuration not stated),"inconclusive: 12.6 µM [inhibitor, single point]",
COc1cc2nc(NC(=O)c3ccc(Cl)cc3)sc(=O)c2cc1OC,"inconclusive: 100 µM [inhibitor, single point]",
COc1cccc(-c2csc(NC3OC(=O)c4c3ccc(OC)c4OC)n2)c1 (configuration not stated),,inactive: 1.02%
Cc1ccc(Sc2ccc(/C=C3/C(=O)NN(c4ccccc4)C3=O)o2)cc1,,inactive: -0.839%
CCCn1c(NCc2ccccc2NS(=O)(=O)c2ccc(C)cc2)nc2ccccc21,"inconclusive: 63.1 µM [inhibitor, single point]",
COc1ccc(N2CCN(C(CNS(=O)(=O)c3ccc4c(c3)OCCO4)c3ccco3)CC2)cc1 (configuration not stated),,inactive: -4.52%
CCOC(=O)c1c(NC(=O)COC(=O)CNC(=O)c2ccco2)sc(C(C)=O)c1C,"inconclusive: 1780 µM [inhibitor, partial curve, poor fit]",

Compound,Potency,"activity, negative = inhibition"
CCOc1ccc(C2C(C(=O)c3ccc(C)o3)=C(O)C(=O)N2Cc2cccnc2)cc1 (configuration not stated),"inconclusive: 22.4 µM [inhibitor, single point]",
O=C(O)c1ccccc1C(=O)NNc1ccc(Cl)cc1Cl,"inconclusive: 79.4 µM [inhibitor, single point]",
O=Cc1ccc2oc3nc4n(c(=O)c3c(=O)c2c1)CCCS4,"inconclusive: 22.4 µM [inhibitor, single point]",
CCOC(=O)C1CCN(C(=O)c2oc3ccc4c(c3c2C)C(O)CC2(CCCCC2)O4)CC1 (configuration not stated),,inactive: -12.3%
COc1ccc(C(=O)COC(=O)c2cc(S(=O)(=O)N3CCCCC3)ccc2N2CCOCC2)c(OC)c1,,inactive: -26.8%
CC(C)C[C@H](NC(=O)[C@@H]1Cc2ccccc2CN1)C(=O)Nc1ccc(C(C)C)cc1,"inconclusive: 89.1 µM [inhibitor, single point]",
Cc1ccc2nc(C(=O)O)c(C(=O)O)nc2c1,"inconclusive: 100 µM [inhibitor, partial curve, poor fit]",
CCOc1cc(/C=N/NC(=O)CNc2cccc(C)c2)ccc1OC(=O)c1ccccc1,,inactive: -0.769%
Cc1ccc(S(=O)(=O)c2c(N)n(Cc3ccco3)c3nc4ccccc4nc23)cc1,"inconclusive: 79.4 µM [inhibitor, single point]",
COc1ccc(/C=C/C(=O)NC(=S)NNC(=O)Cc2cccs2)cc1OC,,inactive: 1.62%
O=C(Cc1cccs1)Nc1nnc(-c2ccncc2)s1,"inconclusive: 562 µM [inhibitor, partial curve, poor fit]",
CCCCCn1c(CN2CCN(c3cccc(Cl)c3)CC2)nc2c1c(=O)[nH]c(=O)n2C,"inconclusive: 316 µM [inhibitor, partial curve, poor fit]",
Cc1ccc(CCNC(=O)CN(c2ccc(C)cc2)S(=O)(=O)c2c(C)noc2C)cc1,"inconclusive: 17.8 µM [inhibitor, single point]",
O=C(CSc1nnc(-c2cnccn2)n1Cc1ccco1)c1ccc(Cl)cc1,"inconclusive: 251 µM [inhibitor, partial curve, poor fit]",
CCN(C(=O)COC(=O)c1cc(-c2ccccc2)nc2ccc(Br)cc12)C1CCS(=O)(=O)C1 (configuration not stated),"inconclusive: 178 µM [inhibitor, partial curve, poor fit]",
NN(CCO)C(=S)Nc1ccc(Cl)cc1,,inactive: -3.11%
C#CCOCCOCCOCCNc1nc(N2CCOCC2)nc(N2CCN(C(=O)[C@H](C)n3cc(CCCN=C(N)N)nn3)CC2)n1,"inconclusive: 100 µM [inhibitor, partial curve, poor fit]",
CCc1ccc(-c2nc3ccc(Br)cc3c(C(=O)O)c2C)s1,"inconclusive: 39.8 µM [inhibitor, partial curve, poor fit]",
CC(OC(=O)/C=C/c1ccc(Br)cc1)C(=O)N1CCOCC1 (configuration not stated),,inactive: 1.2%
CC(C)CCn1c(Br)nc2c1c(=O)n(CC(N)=O)c(=O)n2C,"inconclusive: 100 µM [inhibitor, single point]",
O=C(O)CCCC(=O)Nc1nc(-c2ccc(F)cc2)cs1,,inactive: -1.05%
O=C(O)CCc1ccc(-c2cccs2)n1CCc1ccccc1,,inactive: -2.26%
COc1ccc(-c2csc(Nc3ncccc3C)n2)cc1,"inconclusive: 79.4 µM [inhibitor, single point]",

Compound,Potency,"activity, negative = inhibition"
COc1ccccc1NC(=S)NCc1ccc2c(c1)cc(C)n2C,"inconclusive: 100 µM [inhibitor, partial curve, poor fit]",
OC1O[C@H](c2ccc3c(c2)OCO3)[C@H]2CO[C@H](c3ccc4c(c3)OCO4)[C@@H]12 (some centres not stated),"inconclusive: 89.1 µM [inhibitor, single point]",
O=C(CSc1ncnc2ccccc12)c1ccc2c(c1)OCCO2,active: 20 µM,
Nc1ccc2nc(SCc3ccccc3F)sc2c1,,inactive: 1.58%
COc1ccc2sc(-c3ccc(S(C)(=O)=O)cc3)c(C#CCO)c2c1,"inconclusive: 112 µM [inhibitor, partial curve, poor fit]",
O=C(/N=C1\NC(=O)C(F)(C(F)(F)F)S1)NC1CCCCC1 (configuration not stated),,inactive: -8.18%
CCCN(CCC)c1nc(N)nc(-c2cc(Cl)ccc2OC)n1,"inconclusive: 100 µM [inhibitor, partial curve, poor fit]",
COCCn1nc2cc(C(=O)NCc3cc(C(F)(F)F)cc(C(F)(F)F)c3)ccc2c1OC,"inconclusive: 10 µM [inhibitor, single point]",
CCn1c(C)nc2cc(S(N)(=O)=O)ccc21,,inactive: -23.6%
CCN(CC(=O)NCc1ccc(F)cc1)S(=O)(=O)c1ccc(C)cc1,"inconclusive: 100 µM [inhibitor, partial curve, poor fit]",
Cc1ccc(-c2nn(-c3ccccc3)cc2C2SCC(=O)N2Cc2ccccc2)o1 (configuration not stated),"inconclusive: 89.1 µM [inhibitor, single point]",
O=C1CC(Sc2nnc(-c3ccccc3)o2)C(=O)N1c1ccccc1 (configuration not stated),"inconclusive: 178 µM [inhibitor, partial curve, poor fit]",
Cc1nc(SCC(=O)c2cccs2)c2oc3ccccc3c2n1,"inconclusive: 100 µM [inhibitor, single point]",
Cc1c(C(=O)NCCCN2CCOCC2)sc2nc(-c3ccc(F)cc3)cn12,"inconclusive: 79.4 µM [inhibitor, single point]",
CCOC(=O)C1=C(C)N=c2s/c(=C\c3ccc(OCC(=O)O)cc3)c(=O)n2C1c1ccc(Cl)cc1 (configuration not stated),,inactive: -0.405%
COc1ccc(OCc2cc(C(=O)N3CCCC(OC)C3)no2)c2ccccc12 (configuration not stated),"inconclusive: 100 µM [inhibitor, single point]",
c1cncc(-c2nc(NCC3CCCO3)c3ccccc3n2)c1 (configuration not stated),,inactive: -6.04%
C[C@@]12CCC[C@H](O1)[C@@H]([C@H](O)c1ccccc1)O2,"inconclusive: 63.1 µM [inhibitor, single point]",
COc1ccc2sc(-c3ccc(SC)cc3)c(C#CCO)c2c1,"inconclusive: 1120 µM [inhibitor, partial curve, poor fit]",
Cc1cc(O)c(S(=O)(=O)c2ccccc2)c(C)c1NS(=O)(=O)c1ccccc1,"inconclusive: 89.1 µM [inhibitor, single point]",
COc1ccc(-c2csc(N(Cc3ccco3)C(=O)c3cccs3)n2)cc1,"inconclusive: 100 µM [inhibitor, single point]",

# Record cards, as listed above:
# O=C(O)CCCC(=O)Nc1nc(-c2ccc(F)cc2)cs1 is entered as activity, negative = inhibition: inactive: -1.05%
# Cc1ccc(Sc2ccc(/C=C3/C(=O)NN(c4ccccc4)C3=O)o2)cc1 is entered as activity, negative = inhibition: inactive: -0.839%
# O=C(CSc1ncnc2ccccc12)c1ccc2c(c1)OCCO2 is entered as Potency: active: 20 µM

# Source: PubChem BioAssay AID504842 (National Center for Advancing Translational Sciences (NCATS), 2011)
